# Patent publication US8178708B2, “Lipid derivatives” (Pronova Biopharma Norge AS, priority 2006, dated 2012)
# At least one compound was matched to its structure with a doubt left.
# Experiments:
# [1] = molecular target: T1, ligand binding domain of human RXRα (Homo sapiens, UniProt P19793); test: GAL4-hRXRα LBD luciferase reporter, transient transfection in COS-1 cells; conditions: 10 μM; GAL4-hRXRα LBD chimera in COS-1 cells; negative control = 1.00
# T1 sequence (P19793 227-458 limits assumed): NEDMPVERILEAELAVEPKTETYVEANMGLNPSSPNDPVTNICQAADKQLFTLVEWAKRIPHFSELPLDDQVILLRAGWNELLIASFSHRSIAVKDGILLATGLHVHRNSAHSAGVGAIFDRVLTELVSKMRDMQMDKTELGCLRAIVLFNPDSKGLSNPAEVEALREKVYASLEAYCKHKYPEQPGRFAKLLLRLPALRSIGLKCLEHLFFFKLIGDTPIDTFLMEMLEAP
# [2] = molecular target: T2, ligand binding domain of human PPARα (Homo sapiens, UniProt Q07869); test: GAL4-hPPARα LBD luciferase reporter, transient transfection in COS-1 cells; conditions: 10 μM; GAL4-hPPARα LBD chimera in COS-1 cells; negative control = 1.00
# T2 sequence (Q07869 239-466 limits assumed): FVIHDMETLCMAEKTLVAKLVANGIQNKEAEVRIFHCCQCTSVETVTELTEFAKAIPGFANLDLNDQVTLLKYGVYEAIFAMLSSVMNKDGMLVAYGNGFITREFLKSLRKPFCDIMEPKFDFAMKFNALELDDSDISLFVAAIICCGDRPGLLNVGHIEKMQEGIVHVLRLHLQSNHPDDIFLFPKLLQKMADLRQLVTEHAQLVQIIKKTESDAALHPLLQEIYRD
# [3] = molecular target: T3, ligand binding domain of human PPARγ (Homo sapiens, UniProt P37231); test: GAL4-hPPARγ LBD luciferase reporter, transient transfection in COS-1 cells; conditions: 10 μM; GAL4-hPPARγ LBD chimera in COS-1 cells; negative control = 1.00
# T3 sequence (P37231 238-503 limits assumed): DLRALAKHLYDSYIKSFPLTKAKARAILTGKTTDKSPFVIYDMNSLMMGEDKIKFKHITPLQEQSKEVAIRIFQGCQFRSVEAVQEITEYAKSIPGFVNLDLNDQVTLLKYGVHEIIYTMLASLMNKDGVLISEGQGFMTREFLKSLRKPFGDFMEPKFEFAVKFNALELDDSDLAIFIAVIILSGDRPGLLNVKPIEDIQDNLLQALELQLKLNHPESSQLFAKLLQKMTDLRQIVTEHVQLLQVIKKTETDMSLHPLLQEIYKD
# [4] = molecular target: T4, ligand binding domain of human PPARδ (Homo sapiens, UniProt Q03181); test: GAL4-hPPARδ LBD luciferase reporter, transient transfection in COS-1 cells; conditions: 10 μM; GAL4-hPPARδ LBD chimera in COS-1 cells; negative control = 1.00
# T4 sequence (Q03181 211-439 limits assumed): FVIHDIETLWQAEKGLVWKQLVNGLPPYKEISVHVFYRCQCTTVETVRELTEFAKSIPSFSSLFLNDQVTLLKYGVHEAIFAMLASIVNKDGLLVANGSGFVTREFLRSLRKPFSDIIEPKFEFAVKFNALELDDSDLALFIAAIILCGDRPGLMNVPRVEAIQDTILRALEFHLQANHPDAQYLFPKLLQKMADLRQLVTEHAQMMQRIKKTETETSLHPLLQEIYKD
smiles,measurement,setting,value
"CC/C=C\C/C=C\C/C=C\C/C=C\C/C=C\C/C=C\CCC(=O)O [DHA, docosahexaenoic acid, reference compound]",Luciferase activation (fold activation) hRXRα,[1],0.83 ± 0.09 fold activation
same,Luciferase activation (fold activation) hPPARα,[2],1.57 ± 0.19 fold activation
same,Luciferase activation (fold activation) hPPARγ,[3],1.86 ± 0.17 fold activation
same,Luciferase activation (fold activation) hPPARδ,[4],1.09 ± 0.01 fold activation
